{"source": "paper PMC9448375", "about": "(Drug Delivery, 2022)", "assay": "Far-UV circular dichroism, secondary structure analysis (CDNN)", "type": "physicochemical", "conditions": "CDNN software; for Antiparallel (secondary structural composition) / Others (secondary structural composition) / Parallel (secondary structural composition) / α helix (secondary structural composition) / β turn (secondary structural composition): far-UV CD 195–260 nm, PBS pH 7.4, NaCl 150 mM, INS-equivalent 1 mg/mL, 25 °C; for β-sheet (secondary structural composition): sum of antiparallel and parallel, far-UV CD"}
{"substance": "Dissociated INS: INS dissociated from the INS–SOS complex", "values": [{"measurement": "Antiparallel (secondary structural composition)", "result": 7.4, "unit": "%"}, {"measurement": "Others (secondary structural composition)", "result": 30.6, "unit": "%"}, {"measurement": "Parallel (secondary structural composition)", "result": 7.9, "unit": "%"}, {"measurement": "α helix (secondary structural composition)", "result": 36.7, "unit": "%"}, {"measurement": "β turn (secondary structural composition)", "result": 16.2, "unit": "%"}, {"measurement": "Others (secondary structural composition)", "setting": "listed as dissociated INS", "result": 30.6, "unit": "%"}, {"measurement": "α helix (secondary structural composition)", "setting": "listed as dissociated INS", "result": 36.7, "unit": "%"}, {"measurement": "β turn (secondary structural composition)", "setting": "listed as dissociated INS", "result": 16.2, "unit": "%"}, {"measurement": "β-sheet (secondary structural composition)", "result": 15.3, "unit": "%"}]}
{"substance": "Insulin", "values": [{"measurement": "Antiparallel (secondary structural composition)", "result": 6.9, "unit": "%"}, {"measurement": "Others (secondary structural composition)", "result": 29.8, "unit": "%"}, {"measurement": "Parallel (secondary structural composition)", "result": 7.7, "unit": "%"}, {"measurement": "α helix (secondary structural composition)", "result": 38.0, "unit": "%"}, {"measurement": "β turn (secondary structural composition)", "result": 16.0, "unit": "%"}, {"measurement": "Others (secondary structural composition)", "setting": "listed as INS solution", "result": 29.8, "unit": "%"}, {"measurement": "α helix (secondary structural composition)", "setting": "listed as INS solution", "result": 38.0, "unit": "%"}, {"measurement": "β turn (secondary structural composition)", "setting": "listed as INS solution", "result": 16.0, "unit": "%"}, {"measurement": "β-sheet (secondary structural composition)", "result": 14.6, "unit": "%"}]}
